Reference: PMC9002759, “The Sunflower WRINKLED1 Transcription Factor Regulates Fatty Acid Biosynthesis Genes through an AW Box Binding Sequence with a Particular Base Bias”

Target: HaWRI1_DBD (6-His-TRX-WRI1_DBD) (Helianthus annuus (CAS-6 line)) (UniProt X2BZR1)
Assay: EMSA
Conditions: 20 mM Tris-HCl pH 8.0, 250 mM NaCl, 2 mM MgCl2, 1% glycerol, 1 mM DTT, 1 mg/mL BSA, 30 min room temperature, gels at 4 °C, DIG EMSA plus 0.05 µg/µL polydIdC, recombinant protein, residues 51-229, protein details: N-terminal 6xHis-thioredoxin fusion, probe letters rebuilt from the primers and the genome

Row | Sequence | binding result | also measured
1 | GTAACCAGAGTCCACCACCAATTCCGAGGAAAACCCGGTAACCCACCGGCCGGTAGACACCACGATAAAATTACCGTTAAAACCCGTTTGGCTCAAGGATCGAACCTAGGTTTCCTTGTGTCTCCAATCATTGTCCACCAGTGCCTCACTCTGTACCAAATGGAAGTTGAACCTACATCTCCCAAAAGAAATGCAAGTCTGCCACTACTTGATCTAAAAATTATTGGCCCCTCTTCAACTATATATATAGGAGAAGGATCCGTTATGAAC (double strand) [KASIII-17g (-376/-342)] | no binding | 
2 | GGTGGGTTACCGGGTTTTCCTCGGAATTGGTGGTGGACTCTGGTTACTCTTGGAGTACTCCGATTGTGTTCGAAGGATGCTCAGGATTGATTATGTTGGCCGTTAAAAAAAAAAAGTTGAAGGGGGTTCTATGGGCTTGAACACTACATGGATGTATTTTTCCTTTTTAGGTCAAGTTGCGTAGGCGTTTCCTCTACCGGTCGCCCGGTCTAGAACATAGAGCTGGCATATAGCTCA (double strand) [KASIII-17g (-277)] | no binding | 
3 | GGGGTTAGTTAGGGTATATGGGAAAAATGTGGTCACACTGATTGACACTCCAACGCTTTTCAGCTTCGATTATATCGCCGATCAGTCGGAGCTTCCAAGACCAACACACAGTCTTCATATATCAATCACTTCAATTTCATTTACACAATTGCTCCTCTTCGTTACTCTCTCTCCTCATTTTCTCTCTCTAGAACGCTCATGGCTGCCGCAGCATCTGCTTCTTTCACCGGATCGGTTTTCAAATCCAACCGTATCTCAACTAACTCCGC (double strand) [KAR1 mut A/C] |  | binding result (weak but visible shift): binds more weakly
4 | GAGAATCAAAGCTTCAACCGCTAATAATATCGGTTTATGCGATGAAACTGAATCCAGATCTCGATCTACAACAATAAAAACCTAAAATCACATTCCGATTCAGATTTTCTCTGTACTGATACGTAACAACAATTACAGCGAGAATCAAAGCTTTAAGATTTTAACCGCTAAGTCGCTAACAGAATCGATTTATTCGAAGAAACTGAATCCAGATCTAGATCGAGCTTAGGCGACAGCGACGGGATCTGGTGGATTAGGTTGTGTGG (double strand) [BCCP-16g (-1242/-1203/-1048)] | no binding | 
5 | GGGGTTAGTTAGGGTATATGGGAAAAATGTGGTCACACTGATTGACACTCCAACGCTTTTCAGCTTAGATTATATCGCCGATCAGTCGGAGCTTCCAAGACCAACACACAGTCTTCATATATCAATCACTTCAATTTCATTTACACAATTGCTCCTCTTCGTTACTCTCTCTCCTCATTTTCTCTCTCTAGAACGCTCATGGCTGCCGCAGCATCTGCTTCTTTCACCGGATCGGTTTTCAAATCCAACCGTATCTCAACTAACTCCGC (double strand) [KAR1-17g (-130)] |  | binding result (smear at maximal protein): binds more weakly
6 | TCTTCACTTGGAGGGTGTGATAATGGAGCCCATATGGGTGCTATACATGGTGACATGGCGAGGATGGAGCCCCCACACCCTCTCCAGCCTAACATGTTTTTCTCTATTAAATTGACGCACAAAAAGTCCAAAACCTTCATTGATTTCTCCGCCTAGTGTGTGCTCGTTTTAAACTTGATCTCCTTCATGATTTAATATCCCCTC (double strand) [βPDH-17g (-99)] | binds | 
7 | GGCAATGTATGTGTTTCCCGTCGCGTCGCGCGCGCACCTATCGGTTATTAACCAAAACCGGTTACCGGTGAGCAATAACTAAATCGTTAACCTAAACCAAACCGAAAACAGACGAAACCGAACCGAAATCAACCAAAAATTTACTTAACTGAAAAACGAAATAACCAAAAACCGGTTATCAATTTTTTTGTACTCTCGTTTAACCAAAATTAGCTGAATCGAACTGAATTATTCATATTTTCATATAATTCAAGCTTTTATACCTCCATTTTATATATTTCATATTTTATATCTCAATTTCATAGATTTATACTTTCGTTTAATGTATTTATACCTCAATTTCATATAATTTAAGCAAGGGTGGGAGTTGGCTGCTTTTAACTGA (double strand) [pHaFATA1-f3] | no binding | 
8 | TTGTTTAATATGGGCTCCATCCACACCATGTAAATTAAAAGGGGGCTCCATAGGTGAGGTGGATCCTAGGTGGACTTGATAAAGCCCCATGGGGCTCCATCCACACCTCATAGCCTTAGTGGGCCGTGGGCGTCATCGATTTGTGGGGTGTTTGGTGTTGCGTTTTCAAAATAGATTATGCGTTTTCAAAACTGCGTTTTGAAAAAGCATGTAAGTACATGCTTCTCCAAAACTGCGTTTTGAAGGCAGATAATCAC (double strand) [βPDH-17g (-464)] | no binding | 
9 | TTGAAGGTGGTGTGTATGAAGGTATAGATAGATATATATGAGTCGATGATTACAAATTTCGATCAAAACGATGAATGATGGTCTTTGTGAGGGCCGTTGGGAAGCTTTGGAAGTATCGAAAAGGAAACAGGTGAGGATTGGGTGAGAGTTTTGGGATTCAAAC (double strand) [ENR2-16g upstream boxes] |  | binding result (smear): binds more weakly
10 | AAACCCCCTAAAACCATATCTACCAATTGGTTAACTTACATGTGATTGTAAATATCTTAGAAACAAACTAGACGTTGTTCAACTCCCTCAACCACTCTGAAACTCAAAACACCTTCAAATACACACACTCACAACTTCGTTAACTCCGCTGTCATCTCCCCCGGCTAAC (double strand) [LPD-16g (-127)] | binds | 
11 | GTGCAAATAGTAACAAACGCCCAAAGGGAACTTACAAAATATCAAGTATGTATCAGCCCAAGAAAAGAGCCCAAAAGAAACTTGCTGAACTCCCCCCAAGCGCTGAGGAAAATCAGTGACGACCACAGTCCAACAAACAGTCATTCTCCTTGCCATTGTTAACTCCGCCCCCTTCCGG (double strand) [LPD-10g (-98)] | binds | 
12 | TTTGGAGGAAAGGTTAGGTTGTAGAGAAGGTGGAGATGAGTGGTATATAACAATGGGAGCTTCGAGAGGTCCGCCGGAAGGGGGAAGAGTTAACAATGGCAAGGAGAATGACTGTTTGTTGGACTGTGGTCGTCACTGATTTTCCTCAGCGCTTGGGGGGAGTTCAGCAAGTTTCTTTTGGGCTCTTTTCTTGGGCTGATACATACTTGATATTTTGTAAGTTCCCTTTGGGCGTTTGTTACTATTTGCAC (double strand) [LPD-10g (-73)] | binds | 
13 | GTTGATATCGCCTAACATTTAACACTACTCTACTCTATATCTTCGGTTCCCTCGCCCCCACACCCATACAAGACTCCCCCACCATTGCAGTTCCAGTCTATCTCTTTTGCTTCTTCAATAATCAATACAAC (double strand) [BCCP-16g (-92)] | no binding | 
14 | GTATTGATTGTGTGGGTCGATGGTATTTTAGTGGCGAGTTGCAGGAGAATTGGGGCTTTGGTTGTAACGCCTGTTCGGCTACAGCGGTAGTGCATGGTAAGATCTGTGTTGACCAATGTGTATGCGACACGTGTTACTGGATTACACTTGGTTGATGGATTATTTGTCTACGTGGATGAATTTGAGTGGTTGATGTGTTTAGCTCTCTGTCTTGAACAATCGGTGCCGTTGGTGTAGTTGTGGTATAGGGTTCGGT (double strand) [βPDH-16g (-179)] | binds | 
15 | AGAGTCGAATGCATCCGTCTCGAGAATGTCTTGGGACGGACTCTATTAAGGAGGAAGAAGAGATGATGTTAATTACATTTCTTATTGTTAGAGACGCAATTACTAAATAAATATGACGCGTCTACAATTTCTATTAATAAAGTAGCATAGGCAACTTACGGGAGTTAACATTCAAACATCCCTTTCTTTATCTCTCTCTATATATACACAGATACATATAGAGAGAGATAGAGTGTACAGGGATGTGGAAATAAGATATAAGGGGAGGCGGGGCGGTCCGTGATGGATCCCCCGTCACACGTTATATAATCAGGCACACCGTCGCCGCCGTATATATAACGCGTTATTTAATCAACGCGTTAGAATCATCACG (double strand) [pHaSAD6-f4] | no binding | 
16 | TGTTATAAACCCTGTTTTGAATGCCAAAATTCTTTCGATACTTCCAAAGCTTTCCAACGGCCCTCACAAAGACCATCTCATCTCATCTCACTTTGTTTTAATCGAAACCTACCTGTCTTCTTCATCCCCACTTATACACTCACGCCCACAACAACAAAATAAACATCCTTCCTGTGATC (double strand) [ENR-17g (-699/-677/-644)] |  | binding result (smear): binds more weakly
17 | CTGCAGATTTCAATCTCAAAGACTATAAAGATCCGAACTTTATCACTTTTGGGAGAAGGGGTTCTGTTATCGCCCCCTTAGGACAAAGAAAGACGCTAATTTTAAGAGATTTATTGGAAAGAAATGAGGAGAGAGAGGGGTAACATAGAGAAGATCGTCACTGGTTTTTGGGTTTTTATGTTCGATAATTCTTATGCGGTTTGAGCCAGCTATGATCCGCTAGGCCGTTGAAGATTAGGTGAACCAATGTGAGCAGTAGG (double strand) [αCT-10g (-915)] | binds | 
18 | AGAAAAACATGTTAGGCTGGAGAGGGTGTGGGGGCTCCATCCTCGCCATGTCACCATGTATAGCACCCATATGGGCTCCATTATCACACCCTCCAAGTGAAGAGGGGGACGCCATTGATGGGGCTCCATCATAGTAACACCCGGTAACGTCATGGCTTGGAGTTTGGACCAATCAAATGTTTTTTTTTTTATTTTGTTTAATATGGGCTCCATCCACACCATGTAAATTAAAAGGGGGCTCCATAGGTGAGGTGGATCCTAGGT (double strand) [βPDH-17g (-276)] | no binding | 
19 | CACAATACAATATGTCGTTCCCGTCACATCGCGGTAATAAAAAAAATTAAACCACTACATATATAACTAAGTACTAGTTCCCCCAATTTCAGCACGAAGTACTTCATGGCAAAAACGTGAATAACTGCAACTCCAGTGTCAATCTCCTGCAAGCAACATCTGCCTCGTGCATATCGACACTCCACACTATACATAACCCACTCCGTACCCTCACCAAAACCTTCACACCTAACCTTTTCCGGCGACTCCACGGCGGCGATACACCGATCACTATGCTCTCCAGAGGTGTTCCGACCGCCACCGCCACCGCCTACAATGACGTA (double strand) [pHaFATA1-f1] |  | binding result (label: none (agarose), digoxigenin (PAGE)): binds

No signal at the amounts used counts as a negative. The exact form of at least one protein or probe is not confirmed. Weaker means in comparison with the reference protein, sequence or condition of that experiment.
